At least one compound was matched to its structure with a doubt left.
Test system: primary oval cells (liver progenitor cells)
Assay: Colony formation and proliferation of primary oval cell cultures on Sw-3T3 feeder fibroblasts
Type: cell-based, mouse
Conditions: with DAPT; without: approximately 1 colony per 100,000 cells; FIG. 2B
Experimental: To identify the signals that regulate hepatocyte differentiation from liver progenitor cells, transcriptional profiling was performed on adult liver progenitors (oval cells) from mice fed a choline deficient, ethionine supplemented (CDE) diet (FIG. 1A; FIG. 5A). This CDE model is known in the art as a model of chronic liver disease. CDE is also a steatohepatitis model (NASH). Chronic CDE can also lead to hepatocellular carcinoma (HCC), thereby also serving as a model for HCC. To induce an oval cell response, 8-12 week-old female C57BL/6N mice (Charles River) were fed a choline deficient diet (20% Lard; Teklad TD.04523) supplemented with 0.15% (w/v) Ethionine in the drinking water (Akhurst et al., Hepatology 34(3):519 (2001)). Liver non-parenchymal cells were isolated according to the protocol of del Castillo (del Castillo et al., Am. J. Pathol., 172(5):1238 (2008)) with the addition of 0.04% Hyaluronidase (Sigma) to the in vitro dissociation step.
To elucidate the role of Notch signaling in liver regeneration, an in vitro culture system was developed. Cell cultures were established by culturing primary oval cells on Sw-3T3 fibroblasts (ATCC), arrested with Mitomycin C (Sigma), in High Glucose Dulbecco's Modified Eagle Medium (DMEM; Invitrogen) supplemented with 15% Fetal Calf Serum (Sigma), non-essential amino acids (Invitrogen), Glutamax (Invitrogen), and ITS (Invitrogen).

C[C@H](NC(=O)Cc1cc(F)cc(F)c1)C(=O)N[C@H](C(=O)OC(C)(C)C)c1ccccc1 [DAPT, N—[N-(3,5-difluorophenacetyl)-1-alanyl]-S-phenylglycine t-butyl ester]
colonies formed per plated CD45 negative, non-parenchymal cells: approximately 1 colony per 10,000 cells
